Data from the primary screen of doi:10.1371/journal.pone.0140310, rounded.

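Human melanoma cells were exposed to a pair of drugs for 72 h in 1,536-well plates and read by automated microscopy after fixing and staining. The read-out is the fraction of cleaved-PARP-positive nuclei, in % of that fraction in the DMSO control; 200 means twice the control level of this apoptosis marker. Every drug was used at one fixed concentration, the higher of two screened. The file gives one value for each pair and line, without errors, so small differences may be noise. The marker varies much from line to line, for technical or biological reasons.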 Only some of the drugs and lines screened are listed, without regard to their results. An entry leaves out what has no value listed here.

Drugs:
gemcitabine: Nc1ccn([C@@H]2O[C@H](CO)[C@@H](O)C2(F)F)c(=O)n1 at 0.002 µM
nutlin-3: COc1ccc(C2=N[C@@H](c3ccc(Cl)cc3)[C@@H](c3ccc(Cl)cc3)N2C(=O)N2CCNC(=O)C2)c(OC(C)C)c1 at 0.5 µM
GW0742: Cc1cc(SCc2sc(-c3ccc(C(F)(F)F)c(F)c3)nc2C)ccc1OCC(=O)O at 10 µM
pazopanib: Cc1ccc(Nc2nccc(N(C)c3ccc4c(C)n(C)nc4c3)n2)cc1S(N)(=O)=O at 2 µM
embelin: CCCCCCCCCCCC1=C(O)C(=O)C=C(O)C1=O at 6 µM

With embelin + nutlin-3 the screen read SK-MEL-28: 168; C32: 96.1; SK-MEL-30: 90.0; G-361: 130; A2058: 111; IST-MEL1: 113; UACC-257: 52.6; IPC-298: 86.7; A101D: 189; SK-MEL-2: 104; LOX IMVI: 188; WM451Lu: 116; WM3619: 107; COLO 792: 40.4; RPMI-7951: 48.7; A375: 83.1; RVH-421: 58.3; COLO 800: 31.1; WM3526: 33.5; WM1716: 87.8; COLO 829: 183; SK-MEL-5: 70.2; UACC-62: 142; MEL-HO: 190; MeWo: 70.0; WM115: 163.
With gemcitabine + nutlin-3 the screen read WM1745: 177; SK-MEL-28: 52.0; C32: 170; SK-MEL-30: 142; G-361: 168; A2058: 138; IST-MEL1: 178; UACC-257: 26.5; IPC-298: 225; A101D: 84.8; SK-MEL-2: 35.7; LOX IMVI: 201; WM451Lu: 154; WM3619: 180; COLO 792: 126; RPMI-7951: 195; A375: 99.2; RVH-421: 117; LB2518-MEL: 305; MZ2-MEL: 411; COLO 800: 237; WM3526: 188; WM1716: 116; COLO 829: 296; SK-MEL-5: 203; UACC-62: 146; MEL-HO: 104; MeWo: 231; WM115: 99.9.
With nutlin-3 + pazopanib the screen read WM1745: 145; SK-MEL-28: 47.4; C32: 96.5; SK-MEL-30: 75.9; G-361: 164; A2058: 137; IST-MEL1: 108; UACC-257: 47.4; IPC-298: 46.0; A101D: 107; SK-MEL-2: 119; LOX IMVI: 266; WM451Lu: 103; WM3619: 122; COLO 792: 129; RPMI-7951: 158; A375: 107; RVH-421: 88.5; LB2518-MEL: 108; MZ2-MEL: 36.1; COLO 800: 109; WM3526: 171; WM1716: 64.8; COLO 829: 183; SK-MEL-5: 161; UACC-62: 257; MEL-HO: 158; MeWo: 62.1; WM115: 383.
With GW0742 + embelin the screen read WM1745: 132; 501mel: 104; SK-MEL-28: 124; C32: 195; SK-MEL-30: 118; G-361: 28.1; A2058: 58.4; IST-MEL1: 248; UACC-257: 77.6; IPC-298: 57.6; A101D: 151; SK-MEL-2: 115; LOX IMVI: 113; WM451Lu: 29.5; WM3619: 152; COLO 792: 111; RPMI-7951: 40.2; A375: 66.0; RVH-421: 58.3; LB2518-MEL: 184; MZ2-MEL: 75.8; COLO 800: 174; WM3526: 49.9; WM1716: 75.2; COLO 829: 87.5; SK-MEL-5: 56.8; UACC-62: 28.3; MEL-HO: 116; MeWo: 42.0; WM115: 115.
With gemcitabine + embelin the screen read 501mel: 41.8; SK-MEL-28: 173; C32: 88.2; SK-MEL-30: 81.4; G-361: 363; A2058: 168; IST-MEL1: 378; UACC-257: 60.0; IPC-298: 263; A101D: 155; SK-MEL-2: 46.6; LOX IMVI: 99.9; WM451Lu: 473; WM3619: 163; COLO 792: 188; RPMI-7951: 46.2; A375: 80.5; RVH-421: 337; LB2518-MEL: 373; MZ2-MEL: 74.6; COLO 800: 192; WM3526: 71.7; WM1716: 51.9; COLO 829: 394; SK-MEL-5: 28.3; UACC-62: 65.5; MEL-HO: 88.5; MeWo: 25.1; WM115: 127.
With gemcitabine + GW0742 the screen read SK-MEL-28: 103; C32: 87.6; SK-MEL-30: 102; G-361: 330; A2058: 105; IST-MEL1: 322; UACC-257: 81.5; IPC-298: 239; A101D: 54.9; LOX IMVI: 57.0; WM451Lu: 1010; WM3619: 253; COLO 792: 77.8; RPMI-7951: 155; A375: 62.4; RVH-421: 154; COLO 800: 298; WM3526: 116; WM1716: 360; COLO 829: 358; SK-MEL-5: 98.2; UACC-62: 134; MEL-HO: 170; MeWo: 65.2; WM115: 61.5.
With gemcitabine + pazopanib the screen read WM1745: 162; SK-MEL-28: 107; C32: 76.9; SK-MEL-30: 61.1; G-361: 112; A2058: 141; IST-MEL1: 246; UACC-257: 39.1; IPC-298: 374; A101D: 51.0; SK-MEL-2: 80.9; LOX IMVI: 129; WM451Lu: 517; WM3619: 160; COLO 792: 61.6; RPMI-7951: 71.3; A375: 70.3; RVH-421: 56.1; LB2518-MEL: 380; MZ2-MEL: 21.2; COLO 800: 438; WM3526: 142; WM1716: 91.5; COLO 829: 483; SK-MEL-5: 46.2; UACC-62: 227; MEL-HO: 82.2; MeWo: 118; WM115: 68.0.
With embelin + pazopanib the screen read 501mel: 107; SK-MEL-28: 150; C32: 76.6; SK-MEL-30: 76.1; G-361: 351; A2058: 65.2; IST-MEL1: 107; UACC-257: 32.0; IPC-298: 194; A101D: 75.5; SK-MEL-2: 114; LOX IMVI: 199; WM451Lu: 86.9; WM3619: 110; COLO 792: 76.5; RPMI-7951: 149; A375: 55.1; RVH-421: 122; LB2518-MEL: 355; MZ2-MEL: 27.9; COLO 800: 32.3; WM3526: 153; WM1716: 228; COLO 829: 160; SK-MEL-5: 451; UACC-62: 236; MEL-HO: 74.9; MeWo: 28.3; WM115: 103.